No constants are given. Whether binding was seen depends on the method and setting. Some binding calls cover weakened binding; strength is not graded here. Tags and fused reporters may be left off the sequences shown.
B1: Phf1 (yeast two-hybrid fusion) (protein, UniProt P87233 1-461)
chain: MSQKNFFDEGKSYGVNDYAGFHFENGADSSLPQVSAQGVVRETDSSNFDASPVASGSGISDVGPFGADFHQLQQHVQTPYGGMTMPASSSSGATSVPPEQDPSLSVSFNRLPKSASTKTKNGRIRSSRREDDNRIPFYDLDVAEGAEDDLQEDFHVEGMKTKSGRKIQRPVAYNPNATALKRKSRKVDMVTLCSVCQRGHSPLSNRIVFCDGCNSPYHQLCHHPPIDDATVQDVDAEWFCMKCQYRRAKQPLETGMTAQDLGLSESDKKMYLSSLPTPHLADLILFCEKSYPSLPIYNPRTRELLGEIRHQLLVSSERQQISLQERLHAKQDEAPSDEPAPVPYTASYVANSGTLYDYPTLIRLAIRNTLSPSKDEIFNWLAQNVPLLPTFHDSASEAIRWMVNKGQLVRSGSIYQIATVEEYPHLQPSLLPTFQRNRKVPKLVPVSFPTDDPQNLCATVL
B2: Lsd2 (yeast two-hybrid fusion), Q10135 1-1235 (enzyme)
chain: MNTSENDPDGHYDFPEMTEHHSDRASSYANANNVNSTQPQLVSSEQALLAILGGGLQSITPNSVNQNAYSRSTYRTDGGLNSQPVSSLNNQWGNYNPAFLPSRYDSSFHPYTISQAANQPFPQHLLGNSNAGVAQQSGMRTIGLPPTVGSSFPQQKSSTYENFFDANSPSSQQFPSTYPSRSQNPLSSSGDGSTAIHAGPIQHQNSNAFSNYPYPLDASHLSSQQLLSMYRDQVSHGVTPSTFRNHESFMPTQLVSATELSKSVDNAVLPIPPTTAPAVVSPPASSFPLMSSAATSGNISSPALFDSELGARPEGSVAIEPSRVLLQWSSQSSSHTIPSAGASIPTSSLKSFFEHAAEAARKCNLDPRALESFEQHMLSDRLHDPVVLFHYFQIRNSICWLWIKNPTHAISRVEAQGVCVDRCLFQLASLAYEFLVRYGYINYGCLSFDSSFTNETNTGTTSSSASKQKTIAVVGAGLTGLICARQLTGLFSQYSSSFLSKNELPPKVIILEAKERTGGRIYSRALPVSHTSATQINHHTSNSNSISSNSTSLNPKDVTDPSHIPSAIDLGFQFLFSPMDDILLNLLNKQLGIEVTEMTGSDLVYDETDTKVLDMVEVKKLNILWEKLLEYVSVCFFINVEESVRISWISQFQLFIDEMFPDHLSKSLSLNASHEFSFKKTMLILIDEVSSYAKLGNSQKKFLIWCFKVAELDDTLYPLNTVDTDFSKDILIPKVARRGLSQLPWALQSYPSPLNIHYEKFVSKVTIENDKCTLDCKDNSSYEVDQVVIACSPSHFSSNIEFSPGLPNFVTENIKSIDFKPGKKVILRYAAAFWRKNIRSFGIIPKSLSQEMNNDENDGKSCFVLRIWNMLPETGVPILVADINPQMTSSSSNETSHLIQELHSLIVDHFQNDSNSSADLLDAWVTNWSRNGVYDGLNSYPNFANDKQQYEKRFRQSQLSYNLGRLHIAGDYIFSCVGCRTLQRSFLSGLSVCTGIIDSLAPISLTIPIIGETSRKELDQFLRNSKVNNFDPNAEAQRHLSYQARYRLKKQERLDEHKEEQEQLVTELLGYLPEPPSKPNANPFLLYQKMQWHVCRALADEDKRRLTGDSTAKATINETRAKLGKTWRQLDDLGKKPWIDEIAAQREAYAGKILRYQRLTKEYEMRAEQIRNDYAAKCQDEPIPDDEARLFMQAQREEEQRKQTQDDNISKSREASDEEYHDDGSSDSGYNGTRY

How the values were obtained:
Assay in all cases: two-hybrid; Matchmaker Gold system; bait fused to Gal4-BD (pGBKT7, Y2H Gold cells), prey fused to Gal4-AD (pGADT7, Y187 cells), mated; reporters ADE2 (-Ade -Leu -Trp) and MEL1 (-Leu -Trp +X-α-gal)
[1] = biological target: T1, Lsd1 (yeast two-hybrid fusion) (S. pombe) (UniProt Q9Y802)
T1 sequence: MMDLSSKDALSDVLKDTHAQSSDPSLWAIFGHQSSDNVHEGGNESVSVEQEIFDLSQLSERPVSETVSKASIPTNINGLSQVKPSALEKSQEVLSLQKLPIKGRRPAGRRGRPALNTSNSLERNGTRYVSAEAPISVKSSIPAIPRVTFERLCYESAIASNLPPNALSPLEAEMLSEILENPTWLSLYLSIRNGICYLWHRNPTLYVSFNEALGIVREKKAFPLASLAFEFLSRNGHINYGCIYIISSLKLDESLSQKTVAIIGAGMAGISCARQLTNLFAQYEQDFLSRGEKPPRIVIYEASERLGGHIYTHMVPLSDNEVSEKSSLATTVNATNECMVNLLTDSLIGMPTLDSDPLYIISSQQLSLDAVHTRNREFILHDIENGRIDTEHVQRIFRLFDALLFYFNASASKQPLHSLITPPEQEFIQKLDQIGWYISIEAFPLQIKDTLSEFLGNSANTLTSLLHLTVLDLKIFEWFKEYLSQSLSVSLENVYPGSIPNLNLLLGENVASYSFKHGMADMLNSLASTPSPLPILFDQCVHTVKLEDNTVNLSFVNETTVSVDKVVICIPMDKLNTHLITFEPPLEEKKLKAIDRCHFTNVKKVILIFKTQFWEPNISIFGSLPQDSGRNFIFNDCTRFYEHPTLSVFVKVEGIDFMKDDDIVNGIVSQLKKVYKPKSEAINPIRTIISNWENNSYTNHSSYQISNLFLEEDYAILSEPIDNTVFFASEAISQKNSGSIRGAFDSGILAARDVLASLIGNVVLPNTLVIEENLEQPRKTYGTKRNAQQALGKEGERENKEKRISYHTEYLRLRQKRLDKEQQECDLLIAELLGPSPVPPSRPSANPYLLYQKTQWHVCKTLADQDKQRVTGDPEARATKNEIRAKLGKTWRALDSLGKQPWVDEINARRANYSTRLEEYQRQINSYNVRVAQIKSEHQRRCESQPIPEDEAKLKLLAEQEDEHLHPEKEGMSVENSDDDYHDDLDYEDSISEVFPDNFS

[2] = biological target: T2, Phf2 (yeast two-hybrid fusion) (S. pombe) (UniProt Q09908)
T2 sequence: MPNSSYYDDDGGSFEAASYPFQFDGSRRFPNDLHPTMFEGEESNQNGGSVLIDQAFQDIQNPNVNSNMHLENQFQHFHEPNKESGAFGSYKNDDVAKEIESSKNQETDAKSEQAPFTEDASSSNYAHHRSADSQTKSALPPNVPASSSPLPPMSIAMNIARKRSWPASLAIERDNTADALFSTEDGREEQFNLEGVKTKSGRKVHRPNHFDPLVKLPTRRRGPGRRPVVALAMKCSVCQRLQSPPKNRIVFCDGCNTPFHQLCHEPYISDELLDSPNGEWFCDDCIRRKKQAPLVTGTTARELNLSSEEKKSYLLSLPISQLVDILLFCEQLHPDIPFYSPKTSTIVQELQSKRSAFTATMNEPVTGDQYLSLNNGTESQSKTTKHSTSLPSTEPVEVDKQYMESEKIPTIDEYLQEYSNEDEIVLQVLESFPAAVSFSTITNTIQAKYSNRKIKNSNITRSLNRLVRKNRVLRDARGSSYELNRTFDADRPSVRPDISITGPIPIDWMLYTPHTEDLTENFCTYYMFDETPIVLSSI

[3] = biological target: T3, Lsd1 (yeast two-hybrid fusion) (S. pombe), Q9Y802; details: remark: other sources report otherwise
T3 chain: T1 sequence

| Binder | binding [1] | binding [2] | binding [3] |
| --- | --- | --- | --- |
| B1 | binds | binds | – |
| B2 | – | – | no binding |

— article PMC10795994
